Reference: paper PMC10163288
This is one part of the list.

B1: il2ra_site1_2b5i_normal_mot_HHH_b1_02271_000000068_0001_1_16_H_._HHH_b1_00849_af2_0001_0000100001_0000001_0_1_af2pred_dldesign_0_af2pred (protein)
chain: SSSSSSSEIEKLIEEAKRLKEQGKRREALKKLEEAYKLASAADDEEKMDEIEELAKELSSSSSSS
B2: il2ra_site2_3nfp_sap_18_mot_ems_3hM_1278_af2_000000151_0001_43_60_H_._1f11f742b06f082c384b25695c7254fa_0001_0001_0000400037_0000001_0_0001 (protein)
chain: SSSSDEEEEIREEAERLFKEAEEKNDEELFRALVELASAAWRLGDHELFAFISELAHRLQSSSSS
B3: il2ra_site1_3nfp_sap_13_mot_HHH_b2_00770_af2_000000063_0001_1_19_H_._HHH_b1_01043_0001_0000300015_0000001_0_0001 (protein)
chain: DNIEIARILDELIRKVPPEVAELLYRVMHLAVRGDPEEARKVLEEILELVGDPLVKELLELVEKL
B4: il2ra_site1_2b5i_sap_11_mot_HHH_b1_01949_af2_000000041_0001_1_19_H_._HHH_b2_05381_af2_0001_0000300023_0000001_0_0001 (protein)
chain: SSSSDEATKRFHELFRLVARLWAEGNPEEAEKVLEELKELAKELGDPAAHQAVEMLEKQLSSSSS
B5: il2ra_site1_1z92_sap_18_mot_a6fd39a3fea750eb5223871b70f163d0_0001_af2_000000011_0001_17_33_H_._HHH_b2_00897_0001_0000300009_0000001_0_0001_af2pred_0001_af2pred_ … (protein)
chain: SSSSSSEEEEIVEELVEEFGLSERQKRSLKIAAEIAKELGASEEEIRRDLERFAEFLKRRSSSSS
B6: il2ra_site1_1z92_sap_14_mot_HHH_b2_02521_000000078_0001_19_35_H_._HHH_b1_04803_af2_0001_0000100001_0000001_0_0001 (protein)
chain: SSSSDEALRRLAERLVEDFVRLADLSEEDEERLQELAEKLVERGVSAQELARILEELARKLSSSS
B7: il2ra_site2_2erj_sap_20_mot_HHH_b1_06157_000000296_0001_22_38_H_._HHH_b1_05978_0001_0000300009_0000001_0_0001_af2pred_0001_1_af2pred_swapped (protein)
chain: SDELLAALAIRVAAKRAGVPSVSVEVSNGTIEVTVEGNDEAVKILREFAESAAKAAGLEVHVETE
B8: il2ra_site1_3nfp_sap_20_mot_HHH_b2_03678_af2_000000278_0001_41_55_H_._9e027cdb5f26361229cf46a28aff2188_0001_1_0001_0000200026_0000001_0_0001_af2pred_0001_af2pre … (protein)
chain: SSSSEELKRRAFELLQEAIRLFNNGNPEEAEKVLEEAQELAEKAGNPKLAEMIEAAQRVNGSSSS
B9: il2ra_site1_3nfp_sap_14_mot_119b7766384adbe86006a62bce89dba1_0001_af2_000000052_0001_18_32_H_._HHH_b2_03369_0001_0000100001_0000001_0_0001 (protein)
chain: SNDEWFERLVKRVQELAEEKNDEEVRELAEEALELWERALEEQDSEKADEAIRIVARLQNRVQSS
B10: il2ra_site2_2erj_sap_19_mot_HHH_b1_01555_af2_000000123_0001_22_39_H_._HHH_b2_02358_af2_0001_0000400024_0000001_0_0001_af2pred_0001_af2pred (protein)
chain: SSSSDEAEELLEEAKRLLEEGNPEEAEKVLRKAAAIAAKLGDHELFVEISELLELVHELGSSSSS
B11: il2ra_site1_3nfp_normal_mot_eb5a5eebac1e5153f932cc6c3f4b2787_0001_af2_000000100_0001_18_33_H_._HHH_b2_00861_0001_0000300015_0000001_0_af2pred_0001_af2pred_1 (protein)
chain: SSSSSEEEREEVRELLEQARESSDPREADELFREALKIATELGDPELYELVAEVLREVAQSSSSS
B12: il2ra_site1_3nfp_sap_18_mot_HHH_b2_07488_000000163_0001_1_17_H_._HHH_b2_01265_af2_0001_0000100006_0000001_0_0001 (protein)
chain: SALELLEEFLKKWPDKEYLEELLRADERDYGDPERAAEILARLMLEMNPDDEELREVLEEIRELR
B13: il2ra_site1_2b5i_normal_mot_f5ff40796168375b462bec8614a1db4a_0001_1_000000138_0001_53_65_H_._HHH_b2_07546_0001_0000300021_0000001_0_af2pred_dldesign_0_af2pred (protein)
chain: SSSSSAPSREYIRELIEKARKEEDPLLRRKILLLARKAAKKLGDEELIAEVERVEAELEKSSSSS
B14: il2ra_site1_1z92_sap_20_mot_HHH_b2_02540_000000162_0001_1_16_H_._HHH_b1_04044_0001_0000300016_0000001_0_0001 (protein)
chain: SSSSSSAERSARQAVRIAVELAELSEEQKKELEELAEELVEEGLDPLEILKILDELARRLSSSSS
B15: il2ra_site1_3nfp_normal_mot_HHH_b1_05523_000000027_0001_1_19_H_._HHH_b2_06006_0001_0000100001_0000001_0_af2pred_0001_af2pred_swapped (protein)
chain: SSSSSDDQERIEELFREAEELVRNGNPEEARRVLEEAIELAEELGSRVTVRFLRQALRIASSSSS
B16: il2ra_site2_2erj_sap_22_mot_HHH_b1_04373_af2_000000118_0001_18_33_H_._HHH_b2_00782_0001_0000700027_0000001_0_0001 (protein)
chain: SSSSDERWKEIARLILEAWELYKEEKNPEEAKEVLEEAERLARENGDEASLRYVEHALREISSSS
B17: il2ra_site2_3nfp_sap_21_mot_HHH_b1_04781_af2_000000057_0001_1_18_H_._0bad3e1dd0b580ac51794e340135530b_0001_af2_0001_0000100001_0000001_0_0001 (protein)
chain: SSSSDVEEELEHFLEEIERLLREGNPEEAKEHLQEAARLAYENNDFEVFAKLADLAAKLFSSSSS
B18: il2ra_site1_1z92_normal_mot_HHH_b1_00108_af2_000000035_0001_38_51_H_._HHH_b2_04082_0001_0000200010_0000001_0 (protein)
chain: SSSSSSDYEEIAELFREAARINDRREVEKILEEALELAEENGDESLAKDIRQFLRMLESSSSSSS
B19: il2ra_site2_2erj_sap_16_mot_HHH_b2_03659_000000135_0001_38_56_H_._HHH_b1_04977_0001_0000300018_0000001_0_0001 (protein)
chain: SSSSDLEEEIRELREELEKLIEKGDFHRLYHLLVEISELIRELNDEELAREFNKLLQEVMSSSSS

molecular target: il2ra, P01589; assay: yeast display titration

Apparent Kd, inactive:
B1 no binding seen, B2 no binding seen, B3 no binding seen, B4 no binding seen, B5 no binding seen, B6 no binding seen, B7 no binding seen, B8 no binding seen, B9 no binding seen, B10 no binding seen, B11 no binding seen, B12 no binding seen, B13 no binding seen, B14 no binding seen, B15 no binding seen, B16 no binding seen, B17 no binding seen, B18 no binding seen, B19 > 1500 nM
